Assay results taken from publication PMC7747705.
No constants are given. Whether binding was seen depends on the method and setting. In cells and extracts the contact can be indirect. Tags and fused reporters may be left off the sequences shown.

Sequences of proteins named here, by UniProt entry; tags and fusion partners are left off.
UniProt P08393: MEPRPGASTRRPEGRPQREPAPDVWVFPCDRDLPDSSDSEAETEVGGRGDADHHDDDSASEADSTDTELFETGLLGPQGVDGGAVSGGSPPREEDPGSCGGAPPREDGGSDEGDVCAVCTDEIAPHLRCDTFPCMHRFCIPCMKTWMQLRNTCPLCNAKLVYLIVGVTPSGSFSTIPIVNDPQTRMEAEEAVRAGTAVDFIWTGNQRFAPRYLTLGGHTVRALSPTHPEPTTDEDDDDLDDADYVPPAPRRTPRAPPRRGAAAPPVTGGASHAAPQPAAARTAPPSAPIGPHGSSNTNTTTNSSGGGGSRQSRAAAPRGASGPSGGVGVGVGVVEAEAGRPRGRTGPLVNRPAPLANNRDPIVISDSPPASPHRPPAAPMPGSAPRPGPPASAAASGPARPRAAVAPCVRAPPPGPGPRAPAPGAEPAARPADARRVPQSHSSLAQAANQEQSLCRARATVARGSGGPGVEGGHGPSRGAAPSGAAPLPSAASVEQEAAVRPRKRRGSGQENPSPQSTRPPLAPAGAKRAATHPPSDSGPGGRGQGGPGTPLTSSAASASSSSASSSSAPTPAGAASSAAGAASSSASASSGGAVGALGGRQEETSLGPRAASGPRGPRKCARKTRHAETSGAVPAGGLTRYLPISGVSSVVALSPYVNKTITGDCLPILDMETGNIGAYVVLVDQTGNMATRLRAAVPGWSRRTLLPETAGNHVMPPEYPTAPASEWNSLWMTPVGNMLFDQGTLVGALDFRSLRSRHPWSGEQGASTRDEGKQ

Target: T1, FLAG-tagged TBK1 (TANK-binding kinase 1) (UniProt Q9UHD2)
T1 sequence: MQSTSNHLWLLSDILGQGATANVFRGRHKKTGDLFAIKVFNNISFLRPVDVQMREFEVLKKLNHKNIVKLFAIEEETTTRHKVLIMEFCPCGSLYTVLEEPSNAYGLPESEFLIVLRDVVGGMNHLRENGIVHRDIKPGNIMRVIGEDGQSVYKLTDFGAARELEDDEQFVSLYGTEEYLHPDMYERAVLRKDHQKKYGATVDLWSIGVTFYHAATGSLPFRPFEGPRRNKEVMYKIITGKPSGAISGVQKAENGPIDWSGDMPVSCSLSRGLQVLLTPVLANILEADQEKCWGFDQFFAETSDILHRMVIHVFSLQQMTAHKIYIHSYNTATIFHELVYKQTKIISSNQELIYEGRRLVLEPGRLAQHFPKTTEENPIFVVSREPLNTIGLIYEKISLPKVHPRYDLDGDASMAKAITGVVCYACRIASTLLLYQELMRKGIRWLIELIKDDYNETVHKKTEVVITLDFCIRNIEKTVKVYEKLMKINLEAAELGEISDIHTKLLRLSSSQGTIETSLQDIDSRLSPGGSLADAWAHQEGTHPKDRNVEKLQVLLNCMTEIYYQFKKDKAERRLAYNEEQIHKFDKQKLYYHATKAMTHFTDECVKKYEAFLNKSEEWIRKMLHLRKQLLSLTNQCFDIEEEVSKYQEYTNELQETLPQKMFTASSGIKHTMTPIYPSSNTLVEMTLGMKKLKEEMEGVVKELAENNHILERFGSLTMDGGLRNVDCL
Test: co-IP; 293T cells co-transfected with ICP0 and FLAG-tagged TBK1; extracts 18 h after transfection immunoprecipitated with anti-FLAG antibody (anti-IgG as control); blotted with anti-FLAG and anti-ICP0; radioimmunoprecipitation lysis buffer

## infected cell protein 0 (ICP0) of herpes simplex virus type 1 (from UniProt P08393 1-775)
  binding: no binding
